Primary screen of a compound library

Chains of the proteins cited; added tags and fusions are not shown. Residues count along the entry.
UniProt P9WPC5, whole entry: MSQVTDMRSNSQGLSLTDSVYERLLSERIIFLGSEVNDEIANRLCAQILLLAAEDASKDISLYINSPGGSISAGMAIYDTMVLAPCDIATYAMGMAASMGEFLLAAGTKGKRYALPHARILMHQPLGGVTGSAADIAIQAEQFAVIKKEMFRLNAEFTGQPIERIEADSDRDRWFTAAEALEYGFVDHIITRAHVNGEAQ
UniProt P9WPC3, whole entry partner: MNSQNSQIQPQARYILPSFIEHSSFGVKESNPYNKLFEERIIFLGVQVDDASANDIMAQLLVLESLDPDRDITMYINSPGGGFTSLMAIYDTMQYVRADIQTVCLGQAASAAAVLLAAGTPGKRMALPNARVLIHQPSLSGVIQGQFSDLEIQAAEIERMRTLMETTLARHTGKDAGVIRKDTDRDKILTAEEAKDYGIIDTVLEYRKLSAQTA
UniProt P9WNZ1, whole entry: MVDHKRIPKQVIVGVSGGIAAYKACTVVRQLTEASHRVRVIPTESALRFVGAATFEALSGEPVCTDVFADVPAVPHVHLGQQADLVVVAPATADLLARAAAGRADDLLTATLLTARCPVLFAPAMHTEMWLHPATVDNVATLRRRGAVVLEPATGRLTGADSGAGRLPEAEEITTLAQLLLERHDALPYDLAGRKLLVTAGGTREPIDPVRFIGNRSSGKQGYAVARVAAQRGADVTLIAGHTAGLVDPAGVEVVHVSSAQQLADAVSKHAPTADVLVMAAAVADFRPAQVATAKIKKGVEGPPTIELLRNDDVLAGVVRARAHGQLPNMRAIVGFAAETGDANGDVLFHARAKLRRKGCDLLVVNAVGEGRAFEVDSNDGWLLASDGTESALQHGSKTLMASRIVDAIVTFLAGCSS
UniProt Q8IDJ8, 1-583: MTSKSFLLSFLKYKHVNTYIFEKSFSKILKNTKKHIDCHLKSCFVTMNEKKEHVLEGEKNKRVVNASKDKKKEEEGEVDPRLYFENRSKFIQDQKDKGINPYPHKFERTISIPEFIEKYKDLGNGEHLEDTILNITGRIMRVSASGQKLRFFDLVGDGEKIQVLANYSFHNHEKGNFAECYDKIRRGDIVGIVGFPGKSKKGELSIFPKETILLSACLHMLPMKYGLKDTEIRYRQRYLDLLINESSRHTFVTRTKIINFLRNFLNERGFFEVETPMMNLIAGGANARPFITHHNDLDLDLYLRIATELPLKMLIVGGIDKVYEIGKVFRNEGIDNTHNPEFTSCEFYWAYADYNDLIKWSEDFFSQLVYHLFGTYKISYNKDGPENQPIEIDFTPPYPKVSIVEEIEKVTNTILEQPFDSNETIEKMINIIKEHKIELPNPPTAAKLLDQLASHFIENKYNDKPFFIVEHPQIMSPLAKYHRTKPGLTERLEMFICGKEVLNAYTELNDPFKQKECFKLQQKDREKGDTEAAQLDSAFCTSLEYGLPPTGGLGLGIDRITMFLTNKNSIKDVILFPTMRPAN
UniProt Q4DA54, 1-478: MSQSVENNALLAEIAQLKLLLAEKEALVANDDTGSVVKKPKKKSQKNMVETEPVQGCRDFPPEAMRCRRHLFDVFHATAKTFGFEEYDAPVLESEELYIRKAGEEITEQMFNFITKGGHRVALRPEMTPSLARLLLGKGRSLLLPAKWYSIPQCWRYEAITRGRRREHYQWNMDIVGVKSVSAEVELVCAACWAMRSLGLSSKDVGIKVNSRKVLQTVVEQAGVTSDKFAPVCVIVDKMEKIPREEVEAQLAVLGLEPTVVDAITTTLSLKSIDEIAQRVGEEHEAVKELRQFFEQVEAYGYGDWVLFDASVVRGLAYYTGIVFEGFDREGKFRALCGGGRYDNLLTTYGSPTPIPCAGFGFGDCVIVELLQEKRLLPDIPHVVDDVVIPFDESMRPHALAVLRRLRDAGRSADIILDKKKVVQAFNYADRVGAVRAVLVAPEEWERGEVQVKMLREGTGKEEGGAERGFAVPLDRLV
UniProt I6X8D2, whole entry: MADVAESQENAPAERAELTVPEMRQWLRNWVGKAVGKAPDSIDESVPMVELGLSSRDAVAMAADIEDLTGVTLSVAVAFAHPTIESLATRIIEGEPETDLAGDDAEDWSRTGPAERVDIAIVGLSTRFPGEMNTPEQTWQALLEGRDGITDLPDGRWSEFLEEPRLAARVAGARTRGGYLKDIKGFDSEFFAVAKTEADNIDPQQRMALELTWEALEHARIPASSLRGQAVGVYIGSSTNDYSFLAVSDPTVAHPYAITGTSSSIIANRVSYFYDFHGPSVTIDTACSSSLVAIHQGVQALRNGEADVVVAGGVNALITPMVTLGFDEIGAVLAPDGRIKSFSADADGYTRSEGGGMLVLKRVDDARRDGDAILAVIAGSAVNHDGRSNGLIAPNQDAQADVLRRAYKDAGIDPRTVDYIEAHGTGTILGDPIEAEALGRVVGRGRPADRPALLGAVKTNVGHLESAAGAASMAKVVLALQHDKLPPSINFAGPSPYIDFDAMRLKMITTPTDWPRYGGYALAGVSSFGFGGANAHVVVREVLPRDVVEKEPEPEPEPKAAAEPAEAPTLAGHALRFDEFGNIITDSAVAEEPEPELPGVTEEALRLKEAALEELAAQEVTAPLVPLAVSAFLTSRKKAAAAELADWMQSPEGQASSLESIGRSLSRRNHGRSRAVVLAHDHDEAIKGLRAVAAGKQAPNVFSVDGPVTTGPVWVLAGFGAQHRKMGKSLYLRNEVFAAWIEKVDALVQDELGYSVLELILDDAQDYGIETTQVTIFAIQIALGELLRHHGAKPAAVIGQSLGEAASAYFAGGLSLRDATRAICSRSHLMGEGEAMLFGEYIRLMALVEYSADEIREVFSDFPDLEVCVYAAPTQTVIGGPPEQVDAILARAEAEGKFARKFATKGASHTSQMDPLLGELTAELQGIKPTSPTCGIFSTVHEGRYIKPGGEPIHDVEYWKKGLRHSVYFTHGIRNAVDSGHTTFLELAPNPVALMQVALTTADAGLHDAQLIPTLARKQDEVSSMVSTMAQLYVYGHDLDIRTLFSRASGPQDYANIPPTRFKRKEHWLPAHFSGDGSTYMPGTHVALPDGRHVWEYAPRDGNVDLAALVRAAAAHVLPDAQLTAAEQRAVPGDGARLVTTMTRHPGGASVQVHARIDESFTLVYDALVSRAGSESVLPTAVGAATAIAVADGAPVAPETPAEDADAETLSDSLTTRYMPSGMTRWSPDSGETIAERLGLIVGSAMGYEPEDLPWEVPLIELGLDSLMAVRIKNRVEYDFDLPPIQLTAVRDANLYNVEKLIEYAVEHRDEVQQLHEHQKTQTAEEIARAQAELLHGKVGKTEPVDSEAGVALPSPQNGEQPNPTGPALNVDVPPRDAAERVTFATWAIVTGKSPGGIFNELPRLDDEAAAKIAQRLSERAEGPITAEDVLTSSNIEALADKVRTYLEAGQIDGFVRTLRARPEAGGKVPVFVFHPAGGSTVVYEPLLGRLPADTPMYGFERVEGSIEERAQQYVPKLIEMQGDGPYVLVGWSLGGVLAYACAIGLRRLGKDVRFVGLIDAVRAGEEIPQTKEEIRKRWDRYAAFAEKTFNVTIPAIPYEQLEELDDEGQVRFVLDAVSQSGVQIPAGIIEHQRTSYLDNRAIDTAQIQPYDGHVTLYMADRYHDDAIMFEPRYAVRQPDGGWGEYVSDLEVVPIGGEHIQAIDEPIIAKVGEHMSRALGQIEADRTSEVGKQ

From ChEMBL document CHEMBL3988442, “University of Dundee, Small-Polar-MMV Screening Library” (2021).

ClpP1P2: 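ClpP1P2, Mycobacterium tuberculosis (UniProt P9WPC5 and UniProt P9WPC3). Protease assay of ClpP1P2, read by the AMC dye that it sets free. Tested at 50 µM. Higher reads as stronger inhibition, judged from the few compounds that gave an IC50. Most other retested compounds had strongly negative values. Size under these conditions: about 69,000 compounds, about 10 of them at 50% or above in at least one test.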
CoaBC: 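Enzyme assay of CoaBC with a phosphate dye (Biomol Green) read at 650 nm. Target: Coenzyme A biosynthesis protein CoaBC, Mycobacterium tuberculosis (UniProt P9WNZ1). Concentration: 30 µM. Direction is inferred from only a few compounds that gave an IC50; most scored high, so higher reads as stronger inhibition. Most strong results did not repeat in a second test. Of about 67,000 compounds tested this way, about 40 (0.06%) reached 50% or more in at least one test.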
PfKRS1: 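Lysine-tRNA ligase, Plasmodium falciparum 3D7 (UniProt Q8IDJ8). Enzyme assay of the cytosolic lysyl-tRNA synthetase in 384-well plates, read by luminescence. Tested at 30 µM. Higher reads as stronger inhibition, judged from the few compounds that gave an IC50. About 69,000 compounds were tested under these conditions; 0.071% (about 49) showed 50% or more at least once.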
TcHisRS: 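Histidine-tRNA ligase, Trypanosoma cruzi CL Brener (UniProt Q4DA54). Enzyme assay of histidyl-tRNA synthetase; the read-out is not stated. Concentration: 30 µM. Direction is inferred from retests: higher values go with stronger inhibition. About 69,000 compounds were tested under these conditions; 0.045% (about 31) showed 50% or more at least once.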
Pks13 thioesterase: 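Polyketide synthase Pks13, Mycobacterium tuberculosis (UniProt I6X8D2). Enzyme assay of the thioesterase domain of polyketide synthase 13; the read-out is not stated. Concentration: 30 µM. Higher reads as stronger inhibition (inferred from which compounds were picked for retests). Of about 67,000 compounds tested this way, about 300 (0.46%) reached 50% or more in at least one test.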

Each number is a percent effect as filed. The record does not define 0% and 100%; most values in the screen are far below 50% and negative numbers occur (in some assays of this library far below -100). Compounds were drawn at random from those tested, without regard to their results. A dash means the value is not listed here; it may have been measured.

Compound,ClpP1P2,CoaBC,PfKRS1,TcHisRS,Pks13 thioesterase
CCOCc1cnc2n1CCN(Cc1cccs1)C2C (stereo not shown),-4.419%,5.533%,3.349%,4.598%,-23.84%
O=C(CCC1CCCO1)NCc1ccc(Br)cc1F (stereo not shown),-2.894%,10.71%,2.215%,1.724%,-25.1%
O=C(NCCCn1cnnc1)C1CCCN(C2CCCC2)C1 (stereo not shown),-12.33%,2.635%,0.8195%,-4.39%,8.434%
CN1CCO[C@H]2CN(C(=O)c3ccncc3F)C[C@H]21,-7.826%,-,3.612%,6.135%,-22.81%
CC(C)Oc1cccc(CN2CCC(c3n[nH]c4ncccc34)CC2)c1,-5.036%,6.863%,0.4654%,7.447%,-17.97%
CCCSCC(=O)N1CCC2(CC1)CC(c1ccccc1)CN(C)C2 (stereo not shown),8.834%,-28.97%,7.008%,0%,5.155%
O=C(NCCNC(=O)C1Cc2cc(F)ccc2O1)C1CCCCC1 (stereo not shown),-6.187%,6.198%,-2.523%,-0.5435%,-31.87%
COc1ccccc1S(=O)(=O)Nc1cnc(O)cc1C,-3.563%,3.418%,4.931%,7.317%,7.219%
CCC(=O)NCc1cc(Br)c(OC)c(OC)c1,-7.794%,6.696%,3.826%,-2.075%,-15.25%
N[C@@H]1CC[C@H](C(=O)NCCc2nc(-c3ccccc3)cs2)C1,1.089%,-19.74%,1.298%,1.064%,-24.89%
CC(=O)N1CCC2(CC1)CN(C(=O)c1cccc3[nH]ccc13)CCO2,6.36%,1.449%,6.131%,7.097%,-7.783%
N#Cc1ccc(CNC(=O)NCCC(=O)NC2CCCC2)c(F)c1,-2.913%,-9.504%,6.921%,4.046%,11.58%
CCC(O)CN1CCN(C(=O)c2cnc3n[nH]c(C)c3c2)CC1 (stereo not shown),11.35%,1.434%,1.032%,1.734%,-15.74%
CC(CN1CCOCC1)NC(=O)NCc1ccoc1 (stereo not shown),7.95%,2.066%,11.05%,6.667%,-
CCc1c(C)nc(SCc2ccccn2)[nH]c1=O,7.077%,5.569%,3.679%,15%,-10.95%
O=C(CSCC1CC1)N1CCCC2(CCC(=O)N(CC3CC3)C2)C1 (stereo not shown),4.169%,1.607%,-0.5331%,4.103%,-8.052%
CCN(CC)C(=O)Cn1cc(C(=O)NCCc2nc(C)c(C)s2)nn1,-9.824%,-1.24%,1.618%,2.717%,-
CCOC(=O)CCNC(=O)N1CCN(c2nc3ccccc3n2C)CC1,-11.75%,2.408%,4.494%,0%,-15.01%
COC[C@@H]1CCCN1C(=O)c1cc(-c2cccc(OC)c2)n[nH]1,0.1674%,-,6.833%,10.53%,-40.73%
COCc1csc(NC(=O)NCc2ccccn2)n1,15.36%,2.917%,3.958%,-1.01%,-13.9%
Cc1ncc(C(=O)N2C[C@H](CO)C[C@H](CN3CCOCC3)C2)c(=O)[nH]1,-8.679%,0.3654%,2.244%,-0.5952%,-18.96%
NC(=O)C1CCN(C(=O)c2cc(S(=O)(=O)N3CCCC3)cs2)CC1,4.469%,-5.03%,8.841%,3.933%,-17.63%
CO[C@@H]1CN(c2ccccc2)S(=O)(=O)[C@@]12CCN(C(C)=O)C2,-8.744%,2.421%,3.039%,1.124%,7.802%
NC(=O)N1CCC(NCc2cc(C(F)(F)F)ccc2Cl)CC1,-7.458%,0%,2.323%,9.392%,-20.08%
c1ccc(Cn2cc3c(n2)C(CNCc2ccco2)OCC3)nc1 (stereo not shown),-3.53%,-0.207%,3.842%,9.091%,-0.1363%
CCSCCNC(=O)C(c1cccc(F)c1)N(C)C (stereo not shown),-6.707%,-1.919%,-1.411%,5%,-7.714%
O=C(Cn1cnc(NC(=O)c2ccccn2)n1)NCc1ccccc1,-7.262%,7.749%,0.294%,-12.64%,-
O=c1cc(N2CCCCC2)cnn1CCCn1cccn1,11.01%,11.2%,-5.899%,1.149%,-18.43%
O=S(=O)(Cc1ccccc1)NCc1ccco1,-9.377%,-9.705%,-1.208%,2.439%,-4.878%
COc1cccc(CC(=O)N2CCC(c3ccn4nccc4n3)CC2)c1,-30.27%,-0.6849%,0.7092%,-2%,-9.384%
Cc1nnsc1C(=O)NCC1CCN(c2ccccn2)CC1,-7.059%,1.124%,5.914%,7.143%,-2.656%
CCN1CCC2(CCN(Cc3ccc(OC)cc3)CC2)C1=O,5.638%,3.475%,1.265%,3.883%,-21.97%
COc1ccccc1CN(C)C(=O)CN1CC(n2nc(C)cc2C)C1,-3.908%,14.88%,1.578%,35%,-16.81%
CN(C)C(=O)C1CCN(c2cncc(-n3cccn3)n2)CC1,-22.84%,0.7937%,6.621%,3.448%,9.492%
CNS(=O)(=O)CCn1cc(-c2ccc(OC)c(OC)c2)nn1,-16.22%,2.046%,1.155%,9.091%,29.85%
O=C1CC2(CCN(Cc3ncc[nH]3)CC2)CN1Cc1cc(F)cc(F)c1,-4.668%,1.261%,-0.6642%,2.222%,-32.16%
COCc1nccc(C2CCCN(Cc3ccccc3C#N)C2)n1 (stereo not shown),-0.3929%,-27.7%,6.837%,18.97%,1.567%
Cc1ccccc1C1CCCN1C(=O)CN1CC2(CCNCC2)OC1=O (stereo not shown),-9.991%,-40.3%,1.411%,3.333%,-22.81%
NC(C(=O)N1CCSc2ccccc2C1)c1ccccc1 (stereo not shown),-1.959%,-11.74%,5.706%,9%,-5.713%
CCC(C(=O)Nc1ccc2c(C)n[nH]c2c1)N1CCCC1=O (stereo not shown),2.367%,-2.525%,-4.025%,6.433%,-12.55%
Cc1cc(C(=O)NCC2CCC3(CC2)OCCO3)[nH]n1,-17.38%,2.532%,5.486%,-11.33%,6.692%
CCOc1nn(CC)cc1-c1nnc(SCc2ccccn2)n1C,7.282%,3.928%,4.71%,7.772%,-22.98%
CCc1ccccc1OC1CN(C(=O)c2ccsc2)C1,-2.605%,-8.264%,10.84%,6.358%,-24.9%
CC1CCN(CCCNS(=O)(=O)Cc2ccccc2F)CC1,-1.637%,-0.6048%,3.368%,3.261%,-5.178%
COc1ccc(-n2ncc3c2NC(=O)CSC3CC(C)C)cc1 (stereo not shown),-4.829%,2.273%,1.891%,0.5848%,-20.66%
Cc1nccn1C1CCCN(C(=O)c2ccc(N3CCCC3)nn2)C1 (stereo not shown),3.594%,7.513%,0.6463%,3.03%,-1.449%
Cc1ccc(N2CCC(C(=O)NC3CCc4nccn4C3)CC2)nc1 (stereo not shown),-0.8578%,0.6402%,-4.586%,0.6135%,-7.82%
Cc1ccn2ncc(C(=O)N3CCCC(c4cc(C)[nH]n4)C3)c2n1 (stereo not shown),-8.227%,-4.37%,2.419%,3.061%,-28.65%
CN(C)Cc1cnc(C2CCN(C(=O)c3cccc(F)c3)C2)[nH]1 (stereo not shown),3.923%,-1.48%,3.75%,6.061%,-10.79%
O=C(c1cc(F)cc(F)c1)N1CCC2(CC1)CC2,0.177%,13.73%,4.583%,-1.149%,-10.99%
COCCO[C@H]1CCN(C(=O)NC2CC2)[C@H]1Cc1cnn(C)c1,-0.4486%,3.457%,2.923%,5.521%,6.966%
CCc1nc(C(=O)N2CCN(C(=O)CCc3ccccc3)CC2)c[nH]1,1.217%,1.707%,3.485%,5.195%,-10.66%
Cc1cc2occ(CC(=O)N3CCC4(CCCN(C)C4=O)C3)c2cc1Cl (stereo not shown),-3.593%,-3.902%,5.983%,-6.863%,-4.353%
CCNc1cc2c(nn1)CCN(C(=O)CC1CCCCC1)C2,-8.297%,-1.799%,8.971%,6.767%,-42.4%
CCc1ccccc1OCCCN(C)C(=O)C1CCCN1C(N)=O (stereo not shown),2.271%,11.9%,2.685%,1.657%,-41.49%
Cc1c(Br)cccc1CSc1nnc(CO)n1C,-5.576%,0.9732%,-0.979%,3.03%,-7.669%
CCN1C(=O)[C@]2(CC[C@@H]3CN(C(=O)NCC(C)C)C[C@@H]32)N=C1C,-9.294%,1.29%,7.579%,3.483%,-28.95%
O=C(CC1CCc2ccccc21)NC1(C(=O)O)CCOCC1 (stereo not shown),-3.625%,-0.9732%,1.269%,7.879%,-8.94%
N#Cc1ccc(C(=O)N2CCn3cc(CN4CCCCC4)nc3C2)cc1,-10.59%,2.25%,-1.321%,2.941%,-2.991%
CN(C)C(=O)CN(C)C(=O)c1cnc(Cc2ccc(F)cc2)s1,-21.79%,4.911%,5.028%,2.075%,-6.977%